Paper PMC12040169 (PLOS Biology, 2025)
This is one part of the list.

System: T1, CTL2-GFP (C. trachomatis L2/434/Bu, GFP-expressing)
T1 construct: L2/434/Bu, GFP-expressing
Set-up: species or system HeLa; Intracellular C. trachomatis growth in HeLa cells, bulk GFP fluorescence relative to DMSO
Details: bulk GFP, single well; 28.5 h, 10 µM; inhibitor

SMILES	% of control remaining [%]
O=C(c1nc2ccccc2[nH]1)N1CCN(c2ccccc2)CC1 [CBK200167]	102.105
CC(NC(=O)CCC1CCCC1)c1nc(-c2ccncc2)cs1 (stereo not shown) [CBK305819]	135.436
COc1cccc(CN2CCCC[C@H]3CN(C(C)=O)C[C@H]32)c1 [CBK285510]	111.766
O=C(O)CNC(=O)c1ccccc1NC(=O)c1ccco1 [CBK286894]	102.03
O=C(Nc1nc(-c2cccs2)cs1)c1ccc(F)cc1 [CBK287327]	90.2467
Cc1ccnc(SCc2cc(=O)c3c(=O)n(-c4ccccc4)[nH]c3[nH]2)n1 [CBK269875]	106.087
O=C(NCC1(c2ccccc2)CCC1)C1CCCN(C(=O)c2ccoc2)C1 (stereo not shown) [CBK296670]	151.573
Cc1cc(NC(=O)CN2CCOC(CNc3cccnn3)C2)on1 (stereo not shown) [CBK305231]	117.835
COc1ccc2[nH]c(SCC(=O)Nc3ccc(Br)cc3)nc2c1 [CBK263447]	112.03
CC(=O)N1N=C(c2ccc3c(c2)OCO3)CC1c1ccc(C(=O)O)cc1 (stereo not shown) [CBK286547]	102.819
O=S(=O)(Cc1cc(Cl)ccc1C(F)(F)F)c1cc2c(N3CCNCC3)nccc2s1 [CBK049960C]	72.4191
O=C(c1cccs1)N1CCC[C@@H]1Cn1c(=O)oc2ccccc21 [CBK284528]	104.121
O=S(=O)(NCCN1CCOCC1)c1ccc(Cl)c(Cl)c1Cl [CBK264973]	129.955
Cc1cc(C)c2nc(C(F)(F)F)nc(NCCCN3CCOCC3)c2c1 [CBK266753]	93.8891
Cc1ccn2c(=O)c(C(=O)NCc3cccnc3N3CCOCC3)cnc2c1 [CBK298316]	107.926
O=C(NC1CC(=O)N(CC(F)(F)F)C1)c1cnc(-c2ccncc2)s1 (stereo not shown) [CBK305546]	130.629
Cc1nccn1CCC1CCN(C(=O)c2cnn(C)c2)CC1 [CBK281951]	177.183
CN(Cc1ccc2ncccc2c1)C(=O)CC1CCN(CCc2ccccc2)CC1 [CBK286261]	89.5022
CC1(C)Cc2c(oc(N)c2C#N)CO1 [CBK014395]	115.892
O=C(Cc1c[nH]c2ccccc12)NC(Cc1ccccc1)C(=O)O (stereo not shown) [CBK286770]	79.2459
O=C(O)C1CCCN1S(=O)(=O)c1ccc([N+](=O)[O-])cc1 (stereo not shown) [CBK261424]	100
O=S(=O)(c1ccc(Br)cc1C(F)(F)F)N1CCOCC1 [CBK062405]	94.7112

An excerpt of these results, with bars between the fields:
SMILES | % of control remaining [%]
CC(NC(=O)CCC1CCCC1)c1nc(-c2ccncc2)cs1 (stereo not shown) [CBK305819] | 135.436
COc1cccc(CN2CCCC[C@H]3CN(C(C)=O)C[C@H]32)c1 [CBK285510] | 111.766
